# According to publication PMC7862700:
# This is a selection; strong and weak results do not stand in their true shares. At the low end of the ranking the order means little.
# Target: SPI1 (UniProt P17947)
# Test: DAPPL (digital affinity profiling via proximity ligation, sequencing)
# Details: 10 mM Tris-HCl pH 7.5, 50 mM NaCl, 1 mM DTT, 4% glycerol, room temperature, 30 min; GST-TFs on glutathione beads, 16-mer random dsDNA library, 0.1% …; high values mean tight binding; double strand, one strand shown; scale: fold enrichment (6-mer frequency, TF over GST control)
row,Sequence,binding signal
1,ACATAT,1.2
2,GAAGTT,2.02
3,TAAATA,1.29
4,CCATAT,1.16
5,TTGCGC,1.06
6,TCTCGC,1.69
7,TACTCT,1.44
8,AAGCGA,1.07
9,TACGTA,1.35
10,CTCTAA,1.35
11,TAGTTT,1.12
12,ACCCTA,1.19
13,CCTGGT,1.4
14,TTTATA,1.34
15,TACGTT,1.25
16,AAGGAA,1.48
17,CGCTAG,1.09
18,TCACTT,2.11

# Reprinted at random: 2 records from the list, in no set order.
row,Sequence,binding signal
13,CCTGGT,1.4
5,TTGCGC,1.06

# Carrying on:

row,Sequence,binding signal
1,CTGCGA,1.33
2,TTCCCC,2.54
3,TTTGGT,1.27
4,TACTTA,1.21
5,AAATGA,1.45
6,CCTATC,1.14
7,CGACCG,1.06
8,CACGCT,1.33
9,AACGTA,0.949
10,TACGAT,1.09
11,CTTGCC,1.38
12,TTACCC,1.35
13,CGCCCG,0.984
14,TTCCTG,2.64
15,CCGCCT,1.5
16,AAGCAC,1.18
17,TTACTG,1.05
